Drawing on article PMC6349432, this text covers binding for 1 molecule.

In experiment [1] the target is T1, annexin A6 (AnxA6), endogenous in empty vector control MDA-MB-468 cells (human (endogenous in MDA-MB-468)) (UniProt P08133).
T1 sequence: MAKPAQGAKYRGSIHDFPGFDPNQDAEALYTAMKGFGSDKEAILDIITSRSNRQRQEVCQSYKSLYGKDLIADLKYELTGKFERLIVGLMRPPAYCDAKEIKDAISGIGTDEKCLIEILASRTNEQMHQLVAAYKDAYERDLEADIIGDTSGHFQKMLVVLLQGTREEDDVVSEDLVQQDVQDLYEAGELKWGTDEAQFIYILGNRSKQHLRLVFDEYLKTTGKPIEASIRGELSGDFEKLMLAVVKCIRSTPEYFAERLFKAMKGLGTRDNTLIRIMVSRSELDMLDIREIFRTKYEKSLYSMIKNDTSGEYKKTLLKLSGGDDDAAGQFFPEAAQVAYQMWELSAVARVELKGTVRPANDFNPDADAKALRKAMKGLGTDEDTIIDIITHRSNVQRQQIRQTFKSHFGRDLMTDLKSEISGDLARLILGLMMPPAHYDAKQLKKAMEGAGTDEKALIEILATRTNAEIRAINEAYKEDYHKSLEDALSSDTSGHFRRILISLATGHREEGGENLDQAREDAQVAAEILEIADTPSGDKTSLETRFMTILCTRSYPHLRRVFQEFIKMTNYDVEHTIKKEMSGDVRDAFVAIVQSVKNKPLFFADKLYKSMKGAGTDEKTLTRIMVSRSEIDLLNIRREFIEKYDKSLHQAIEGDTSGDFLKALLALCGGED
Kind of experiment: co-IP; antibodies against AnxA6 and protein A/G plus agarose beads, overnight at 4 C; whole cell extracts of EV control and AnxA6 overexpressing MDA-MB-468 cells, with or without GTP; western blot. (In general: Immunoblotting shows a protein as a band on a membrane.)

The target of experiment [2] is T2, flag-tagged AnxA6 expressed in MDA-MB-468 cells (UniProt P08133).
T2 sequence: T1 sequence
Described as above.

Results are given in words; binding and its absence hold for the method and conditions named. In cells and extracts the contact can be indirect. Some entries that bind do so weakly or less than the wild type. For some assays here: Where a sequence is shown, tags or fusion partners need not be part of it.

B1: RasGRF2 (protein, UniProt O14827 1-1237)
chain: MQKSVRYNEGHALYLAFLARKEGTKRGFLSKKTAEASRWHEKWFALYQNVLFYFEGEQSCRPAGMYLLEGCSCERTPAPPRAGAGQGGVRDALDKQYYFTVLFGHEGQKPLELRCEEEQDGKEWMEAIHQASYADILIEREVLMQKYIHLVQIVETEKIAANQLRHQLEDQDTEIERLKSEIIALNKTKERMRPYQSNQEDEDPDIKKIKKVQSFMRGWLCRRKWKTIVQDYICSPHAESMRKRNQIVFTMVEAESEYVHQLYILVNGFLRPLRMAASSKKPPISHDDVSSIFLNSETIMFLHEIFHQGLKARIANWPTLILADLFDILLPMLNIYQEFVRNHQYSLQVLANCKQNRDFDKLLKQYEANPACEGRMLETFLTYPMFQIPRYIITLHELLAHTPHEHVERKSLEFAKSKLEELSRVMHDEVSDTENIRKNLAIERMIVEGCDILLDTSQTFIRQGSLIQVPSVERGKLSKVRLGSLSLKKEGERQCFLFTKHFLICTRSSGGKLHLLKTGGVLSLIDCTLIEEPDASDDDSKGSGQVFGHLDFKIVVEPPDAAAFTVVLLAPSRQEKAAWMSDISQCVDNIRCNGLMTIVFEENSKVTVPHMIKSDARLHKDDTDICFSKTLNSCKVPQIRYASVERLLERLTDLRFLSIDFLNTFLHTYRIFTTAAVVLGKLSDIYKRPFTSIPVRSLELFFATSQNNRGEHLVDGKSPRLCRKFSSPPPLAVSRTSSPVRARKLSLTSPLNSKIGALDLTTSSSPTTTTQSPAASPPPHTGQIPLDLSRGLSSPEQSPGTVEENVDNPRVDLCNKLKRSIQKAVLESAPADRAGVESSPAADTTELSPCRSPSTPRHLRYRQPGGQTADNAHCSVSPASAFAIATAAAGHGSPPGFNNTERTCDKEFIIRRTATNRVLNVLRHWVSKHAQDFELNNELKMNVLNLLEEVLRDPDLLPQERKAAANILRALSQDDQDDIHLKLEDIIQMTDCMKAECFESLSAMELAEQITLLDHVIFRSIPYEEFLGQGWMKLDKNERTPYIMKTSQHFNDMSNLVASQIMNYADVSSRANAIEKWVAVADICRCLHNYNGVLEITSALNRSAIYRLKKTWAKVSKQTKALMDKLQKTVSSEGRFKNLRETLKNCNPPAVPYLGMYLTDLAFIEEGTPNFTEEGLVNFSKMRMISHIIREIRQFQQTSYRIDHQPKVAQYLLDKDLIIDEDTLYELSLKIEPRLPA
Take B1: the binding entry in experiment [1] and in experiment [2] was “binds” each time.
